Source: patent US20070298499, “Methods and compositions for regulating gene expression in plant cells” (published 2007)

Assays:
RF2a = target: T1, RF2a (UniProt Q69IL4); assay: SPR; details: higher affinity than RF2b, purified recombinant protein, protein details: N-terminal His6 (pET28a), label: biotin (SPR)
T1 sequence: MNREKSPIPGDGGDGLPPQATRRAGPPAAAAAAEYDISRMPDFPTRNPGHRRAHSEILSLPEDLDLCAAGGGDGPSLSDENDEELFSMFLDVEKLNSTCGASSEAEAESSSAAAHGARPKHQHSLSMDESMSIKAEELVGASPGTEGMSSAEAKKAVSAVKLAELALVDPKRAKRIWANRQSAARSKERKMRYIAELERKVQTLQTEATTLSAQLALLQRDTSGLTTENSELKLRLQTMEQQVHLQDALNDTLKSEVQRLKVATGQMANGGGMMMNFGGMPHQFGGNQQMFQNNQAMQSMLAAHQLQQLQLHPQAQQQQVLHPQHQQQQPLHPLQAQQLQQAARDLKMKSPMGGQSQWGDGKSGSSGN

[1] = target: T2, RF2a-3Δ (proline-rich, acidic and glutamine-rich domains deleted) (UniProt Q69IL4); assay: EMSA; details: 100 ng protein, 5% acrylamide gel; purified recombinant protein; protein details: N-terminal His6 (pET28a); label: biotin (SPR), 32P (EMSA); variant of Box II
T2 sequence: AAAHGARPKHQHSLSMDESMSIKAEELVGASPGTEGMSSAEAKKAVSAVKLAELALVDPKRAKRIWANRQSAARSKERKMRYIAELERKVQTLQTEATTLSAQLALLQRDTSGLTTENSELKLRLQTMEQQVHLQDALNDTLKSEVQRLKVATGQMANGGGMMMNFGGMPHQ

[2] = target: T3, RF2a (expressed in BY-2 protoplasts) (UniProt Q69IL4); assay: activity in cells; details: protein in cells
T3 sequence: T1 sequence

[3] = GUS reporter in BY-2 protoplasts, range given for m1 and m2 together

Sequence: CCAGTGTGGCGCTGG (double strand) [Box IIm1]
- binding result (RF2a; 32P (EMSA), variant of Box II): binds
- binding result [1]: binds

Sequence: GGAGTGTGCCCCTTC (double strand) [Box IIm2]
- binding result (RF2a; variant of Box II): binds

Sequence: CCAGTGTGCCCCTGG (double strand) [Box II]
- binding result (RF2a; fast on, slow off, BIAcore 2000, 1:1 with mass transfer): binds
- activity on this sequence ([2]; Box II fused to CaMV 35S -48 to +8 minimal promoter, GUS, activates, only the site is given): active

Sequence: ACGAATCAATAAAGAAGGACCAGAAGATATAAAGCTGGAACATCTTCACATGCTACCACATGGCTAGCATCTTTACTTTAGCATCTCTATTATTGTAAGAGTGTATAATGAGGAGTGTGCCCCTTCACTCCAGTATATAAGGAGCACCAGAGTAGTGTAATAGATCATCGATCAAGCAAGCGAGAGCTCAAACTTCTAAGAGAGCAAGA (double strand) [E fragment with Box IIm2]
- activity on this sequence [2, 3]: active

Sequence: ACGAATCAATAAAGAAGGACCAGAAGATATAAAGCTGGAACATCTTCACATGCTACCACATGGCTAGCATCTTTACTTTAGCATCTCTATTATTGTAAGAGTGTATAATGACCAGTGTGGCGCTGGACTCCAGTATATAAGGAGCACCAGAGTAGTGTAATAGATCATCGATCAAGCAAGCGAGAGCTCAAACTTCTAAGAGAGCAAGA (double strand) [E fragment with Box IIm1]
- activity on this sequence [2, 3]: active

The exact form of at least one protein or probe is not confirmed. Protein sequences can lack the tags named with them.
